# No constants are given. Whether binding was seen depends on the method and setting. Binding seen in cells or lysates may run through a third protein. Some binding calls cover weakened binding; strength is not graded here. For part of these data: Tags and fused reporters may be left off the sequences shown.
# Protein sequences, listed by entry. Tags and fused reporters are not part of them.
# UniProt Q8BKJ9: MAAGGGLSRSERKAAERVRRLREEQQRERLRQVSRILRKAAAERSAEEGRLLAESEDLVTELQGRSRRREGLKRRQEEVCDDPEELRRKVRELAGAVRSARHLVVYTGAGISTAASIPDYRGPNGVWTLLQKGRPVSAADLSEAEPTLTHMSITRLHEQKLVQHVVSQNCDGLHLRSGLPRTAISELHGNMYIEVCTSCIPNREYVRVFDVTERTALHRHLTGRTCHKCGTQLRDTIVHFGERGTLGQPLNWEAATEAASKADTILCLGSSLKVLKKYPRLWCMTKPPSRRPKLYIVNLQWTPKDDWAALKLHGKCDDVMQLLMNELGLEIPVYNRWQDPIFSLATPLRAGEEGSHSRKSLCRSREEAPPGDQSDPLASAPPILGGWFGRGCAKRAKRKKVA
# UniProt Q9NRC8: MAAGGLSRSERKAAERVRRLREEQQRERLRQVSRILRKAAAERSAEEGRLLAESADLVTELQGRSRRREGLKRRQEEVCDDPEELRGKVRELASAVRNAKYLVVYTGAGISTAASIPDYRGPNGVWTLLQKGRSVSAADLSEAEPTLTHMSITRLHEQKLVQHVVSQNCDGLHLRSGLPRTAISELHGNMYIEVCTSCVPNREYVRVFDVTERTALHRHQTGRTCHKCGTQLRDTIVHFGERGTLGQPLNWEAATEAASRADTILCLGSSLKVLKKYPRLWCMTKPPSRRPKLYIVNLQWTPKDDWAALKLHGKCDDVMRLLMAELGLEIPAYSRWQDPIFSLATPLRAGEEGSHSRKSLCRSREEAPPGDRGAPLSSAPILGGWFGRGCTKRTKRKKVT
# T1: FLAG-tagged NRF2 (wild type) (UniProt Q16236)
# T1 sequence: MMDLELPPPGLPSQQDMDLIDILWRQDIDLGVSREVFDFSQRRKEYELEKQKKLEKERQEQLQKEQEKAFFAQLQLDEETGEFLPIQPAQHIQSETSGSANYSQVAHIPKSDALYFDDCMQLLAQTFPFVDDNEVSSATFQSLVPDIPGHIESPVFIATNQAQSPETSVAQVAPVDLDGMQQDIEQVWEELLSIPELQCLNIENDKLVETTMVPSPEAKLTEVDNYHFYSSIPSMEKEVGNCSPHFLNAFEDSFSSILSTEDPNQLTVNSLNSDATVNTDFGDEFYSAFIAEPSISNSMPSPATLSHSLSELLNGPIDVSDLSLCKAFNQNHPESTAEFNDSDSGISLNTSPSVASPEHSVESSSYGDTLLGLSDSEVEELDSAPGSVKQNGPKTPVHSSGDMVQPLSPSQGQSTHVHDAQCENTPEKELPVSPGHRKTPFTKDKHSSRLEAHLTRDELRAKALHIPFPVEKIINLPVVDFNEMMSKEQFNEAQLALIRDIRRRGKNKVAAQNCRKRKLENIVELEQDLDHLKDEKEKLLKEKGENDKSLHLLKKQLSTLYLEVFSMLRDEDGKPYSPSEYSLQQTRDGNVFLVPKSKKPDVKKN
# Columns and labels:
# [1] = target: T1, FLAG-tagged NRF2 (wild type); assay: co-IP; Huh7 cells transfected with FLAG-tagged SIRT7, FLAG-tagged SIRT7 HY or FLAG-tagged NRF2; endogenous partner detected by Western blot
# [2] = target: SIRT7 (endogenous, mouse primary hepatocytes) (mouse (endogenous in primary mouse hepatocytes)) (UniProt Q8BKJ9); assay: co-IP; endogenous SIRT7 and NRF2 in mouse primary hepatocytes; 400 ug total protein, Biolinkedin Basic Co-IP kit, Western blot
# [3] = target: FLAG-tagged SIRT7 (UniProt Q9NRC8); assay: co-IP; Huh7 cells transfected with FLAG-tagged SIRT7, FLAG-tagged SIRT7 HY or FLAG-tagged NRF2; endogenous partner detected by Western blot
molecule,measurement,setting,value
"SIRT7 (endogenous, Huh7) (from UniProt Q9NRC8 1-400) (enzyme)",binding,[1],binds
"NRF2, nuclear factor-E2-related factor 2 (endogenous, mouse primary hepatocytes) (protein, UniProt Q60795 1-597) MMDLELPPPGLQSQQDMDLIDILWRQDIDLGVSREVFDFSQRQKDYELEKQKKLEKERQEQLQKEQEKAFFAQFQLDEETGEFLPIQPAQHIQTDTSGSASYSQVAHIPKQDALYFEDCMQLLAETFPFVDDHESLALDIPSHAESSVFTAPHQAQSLNSSLEAAMTDLSSIEQDMEQVWQELFSIPELQCLNTENKQLADTTAVPSPEATLTEMDSNYHFYSSISSLEKEVGNCGPHFLHGFEDSFSSILSTDDASQLTSLDSNPTLNTDFGDEFYSAFIAEPSDGGSMPSSAAISQSLSELLDGTIEGCDLSLCKAFNPKHAEGTMEFNDSDSGISLNTSPSRASPEHSVESSIYGDPPPGFSDSEMEELDSAPGSVKQNGPKAQPAHSPGDTVQPLSPAQGHSAPMRESQCENTTKKEVPVSPGHQKAPFTKDKHSSRLEAHLTRDELRAKALHIPFPVEKIINLPVDDFNEMMSKEQFNEAQLALIRDIRRRGKNKVAAQNCRKRKLENIVELEQDLGHLKDEREKLLREKGENDRNLHLLKRRLSTLYLEVFSMLRDEDGKPYSPSEYSLQQTRDGNVFLVPKSKKPDTKKN",binding,[2],binds
"NRF2, nuclear factor-E2-related factor 2 (endogenous, Huh7) (protein, UniProt Q16236 1-605) MMDLELPPPGLPSQQDMDLIDILWRQDIDLGVSREVFDFSQRRKEYELEKQKKLEKERQEQLQKEQEKAFFAQLQLDEETGEFLPIQPAQHIQSETSGSANYSQVAHIPKSDALYFDDCMQLLAQTFPFVDDNEVSSATFQSLVPDIPGHIESPVFIATNQAQSPETSVAQVAPVDLDGMQQDIEQVWEELLSIPELQCLNIENDKLVETTMVPSPEAKLTEVDNYHFYSSIPSMEKEVGNCSPHFLNAFEDSFSSILSTEDPNQLTVNSLNSDATVNTDFGDEFYSAFIAEPSISNSMPSPATLSHSLSELLNGPIDVSDLSLCKAFNQNHPESTAEFNDSDSGISLNTSPSVASPEHSVESSSYGDTLLGLSDSEVEELDSAPGSVKQNGPKTPVHSSGDMVQPLSPSQGQSTHVHDAQCENTPEKELPVSPGHRKTPFTKDKHSSRLEAHLTRDELRAKALHIPFPVEKIINLPVVDFNEMMSKEQFNEAQLALIRDIRRRGKNKVAAQNCRKRKLENIVELEQDLDHLKDEKEKLLKEKGENDKSLHLLKKQLSTLYLEVFSMLRDEDGKPYSPSEYSLQQTRDGNVFLVPKSKKPDVKKN",binding,[3],binds
